Measurements from PubChem BioAssay AID540276 (National Center for Advancing Translational Sciences (NCATS), 2011).
Out of some 300,000 compounds screened, about 5,400 (1.8%) were called active. The shares of active, inactive and inconclusive entries below differ from those in the screen. Calls follow the shape of the full dose curve; tested in HEK293 cells. Where the call is inconclusive, the potency comes from a doubtful curve fit.

Assay: qHTS for inhibitors of binding or entry into cells for Marburg Virus
Settings: Marburg virus pseudotyped entry inhibition, cell reporter; activity change, negative = inhibition: at 37.8 µM (top of the series) unless noted
% is scaled to controls: 0 for no effect and ±100 for the full control effect; potency is read from the fitted curve at half-maximal effect.

Row | Compound | Potency | activity change, negative = inhibition
1 | COc1ccc(NC(=O)C(C)N(C)Cc2ccc3ccccc3c2)cc1 (configuration not stated) | inconclusive: 5.01 µM [inhibitor, full curve, poor fit] | 
2 | CCOc1ccccc1NC(=O)c1cnc(NS(=O)(=O)c2ccccc2)nc1 |  | inactive: 2.68% [at 46.1 µM]
3 | CCc1c(C)nc2ncnn2c1N1CCCC(C(=O)Nc2cc(F)ccc2C)C1 (configuration not stated) | inconclusive: 35.5 µM [inhibitor, single point] | 
4 | CCC1CCc2c(sc(NC(=O)c3ccco3)c2C(N)=O)C1 (configuration not stated) |  | inactive: -1.54%
5 | CCc1nnc(NC(=O)CSc2nnc(-c3ccccc3O)n2-c2ccc(C)cc2C)s1 | inconclusive: 1.26 µM [activator, single point] | 
6 | C/C(CCc1ccccc1)=N\NC(=O)c1ccccc1 |  | inactive: 1.05%
7 | O=c1[nH]c(O)c(/C=C2\C=Nc3ccc(OCc4ccccc4)cc32)c(=O)[nH]1 | inconclusive: 35.5 µM [inhibitor, single point] | 
8 | COc1ccc(OC)c(NC(=O)c2ccc(CN(c3cc(Cl)ccc3C)S(=O)(=O)c3ccccc3)cc2)c1 | inconclusive: 11.2 µM [inhibitor, single point] | 
9 | CC(=O)c1cccc(OCC(=O)N(CCC2=CCCCC2)c2c(N)n(Cc3ccccc3)c(=O)[nH]c2=O)c1 | inconclusive: 0.355 µM [activator, full curve, poor fit] | 
10 | CCc1cc2ccccc2nc1SCC(=O)Nc1cc(C)on1 | inconclusive: 2.24 µM [inhibitor, full curve, poor fit] | 
11 | O=C(NC1CCCCC1)C1CCN(S(=O)(=O)c2cccc3nonc23)CC1 |  | inactive: -2.34% [at 46.1 µM]
12 | Cc1[nH]c2ccc(-c3n[nH]c(=S)n3Cc3ccccc3)cc2c1C | inconclusive: 3.16 µM [inhibitor, single point] | 
13 | COc1cc(C(=O)N/N=C/c2ccc(OC(=O)N3CCOCC3)cc2)cc(OC)c1OC | inconclusive: 18.4 µM [inhibitor, partial curve, poor fit] | 
14 | CCCCOc1ccc(C(C)NC(=O)CCS(=O)(=O)Cc2ccc(C)cc2)cc1 (configuration not stated) | inconclusive: 35.5 µM [inhibitor, partial curve, poor fit] | 
15 | COc1ccc(CCNC(=O)/C(C#N)=C/c2cccc(OCc3ccccc3)c2)cc1OC | inconclusive: 3.98 µM [inhibitor, full curve, poor fit] | 
16 | CN(CC(=O)Nc1cccc(F)c1)S(=O)(=O)c1ccc2c(c1)n(C)c(=O)c(=O)n2C |  | inactive: -0.175% [at 46.1 µM]
17 | CC1c2ccccc2N(S(=O)(=O)c2ccccc2)C1C (configuration not stated) | active: 3.55 µM | 
18 | CCn1nnnc1SCC(=O)N(C1CCCCC1)C1CCCCC1 | inconclusive: 35.5 µM [inhibitor, single point] | 
19 | COc1ccc(OC)c(/C=C/c2[nH]c(=O)[nH]c(=O)c2[N+](=O)[O-])c1 | inconclusive: 35.5 µM [inhibitor, single point] | 
20 | CN1CCN(C(=O)c2ccc3c(c2)N(Cc2ccc(C(F)(F)F)cc2)C(=O)c2ccccc2S3)CC1 | inconclusive: 35.5 µM [inhibitor, single point] | 
21 | CN1CCN(C(=O)c2ccc(-n3cccc3)cc2)CC1 |  | inactive: 8.42%

Exported field by field: part of the list above
COc1cc(C(=O)N/N=C/c2ccc(OC(=O)N3CCOCC3)cc2)cc(OC)c1OC
  Potency: inconclusive: 18.4 µM [inhibitor, partial curve, poor fit]
CCCCOc1ccc(C(C)NC(=O)CCS(=O)(=O)Cc2ccc(C)cc2)cc1 (configuration not stated)
  Potency: inconclusive: 35.5 µM [inhibitor, partial curve, poor fit]
COc1ccc(CCNC(=O)/C(C#N)=C/c2cccc(OCc3ccccc3)c2)cc1OC
  Potency: inconclusive: 3.98 µM [inhibitor, full curve, poor fit]

Further results:

Row | Compound | Potency | activity change, negative = inhibition
22 | Cc1cc2sc(NC(=O)c3ccco3)nc2cc1Cl | inconclusive: 3.55 µM [inhibitor, partial curve, poor fit] | 
23 | COC(=O)c1sccc1NC(=O)Cn1nnc(-c2ccccc2C)n1 | inconclusive: 6.31 µM [inhibitor, partial curve, poor fit] | 
24 | COc1cccc(C(=O)NNC(=O)C(=O)Nc2ccc(C)cc2)c1 | inconclusive: 3.16 µM [activator, full curve, poor fit] | 
25 | O=C(Cc1ccccc1)NCC(=O)N1CCCCC1 | inconclusive: 7.08 µM [activator, partial curve, poor fit] | 
26 | COc1ccc(S(=O)(=O)N(CC(=O)N/N=C/c2cccs2)c2ccc(C)cc2)cc1OC | inconclusive: 35.5 µM [inhibitor, single point] | 
27 | Cc1ccc(C(=O)O/N=C(\N)c2ccc(Br)cc2)cc1 | inconclusive: 6.31 µM [activator, single point] | 
28 | O=C(Nc1ccc2[nH]c3c(c2c1)CCCC3)c1ccco1 | inconclusive: 3.98 µM [activator, full curve] | 
29 | C=CCNC(=O)c1ccc(OC2CCN(S(=O)(=O)N(C)C)CC2)cc1 |  | inactive: 29.3% [at 14.2 µM]
30 | COc1ccc(C(CNC(=O)c2oc3c(Cl)cccc3c2C)N2CCCC2)cc1 (configuration not stated) | inconclusive: 35.5 µM [inhibitor, single point] | 
31 | Cc1cc(C(=O)COC(=O)CC2Sc3ccccc3NC2=O)c(C)n1-c1ccccc1 (configuration not stated) | inconclusive: 31.6 µM [activator, single point] | 
32 | Cc1cc(/C=C2\SC(=Nc3ccc(F)cc3)NC2=O)c(C)n1-c1ccc(S(N)(=O)=O)cc1 | inconclusive: 11.2 µM [inhibitor, partial curve, poor fit] | 
33 | COc1ccccc1NC(=O)CSc1nnnn1-c1ccc(C(=O)O)cc1 | inconclusive: 25.1 µM [activator, single point] | 
34 | C=CCNC(=S)NNc1nc2sc3c(c2c(=O)[nH]1)CC(C)(C)OC3 | inconclusive: 6.31 µM [inhibitor, single point] | 
35 | CCOc1ccc(S(=O)(=O)N2CCN=C2c2ccccc2)c(C)c1C | inconclusive: 35.5 µM [inhibitor, single point] | 
36 | CN1CCN(S(=O)(=O)c2ccc(NC(=S)NC(=O)C3CC3)cc2)CC1 | inconclusive: 31.6 µM [activator, single point] | 
37 | Cc1c(Br)c([N+](=O)[O-])nn1C(C)C(=O)Nc1nccs1 (configuration not stated) | inconclusive: 20.6 µM [inhibitor, partial curve, poor fit] | 
38 | COC(=O)N1C2=C(c3ccccc3[C@@H]1CC(=O)O)[C@@H]1O[C@@H](C2)c2ccccc21 | inconclusive: 0.668 µM [inhibitor, full curve, poor fit] | 
39 | CN(C(=O)CSc1nnc(-c2ccco2)n1N)C1CCCCC1 | inconclusive: 14.1 µM [activator, single point] | 
40 | CC(C)NCc1c(O)c(Br)cc2oc3c(c12)CCCC3 | inconclusive: 11.2 µM [activator, single point] | 
41 | O=C(COC(=O)CCC(=O)N1CCOCC1)Nc1ccc(Br)cc1Br |  | inactive: 19.4%
42 | Cc1ccc(N=C/C(C(=O)C(F)(F)F)=C(\O)c2cccs2)cc1 | inconclusive: 35.5 µM [inhibitor, single point] | 

Row | Compound | Potency | activity change, negative = inhibition
43 | O=C(Nc1cccc([N+](=O)[O-])c1)c1[nH]ncc1Cl | inconclusive: 0.206 µM [activator, full curve, poor fit] | 
44 | COc1ccccc1NS(=O)(=O)c1ccc(OC)c(OC)c1 | inconclusive: 1.78 µM [inhibitor, full curve, poor fit] | 
45 | N#C/C(=C\c1c(N2CCCCC2)nc2ccccn2c1=O)C(=O)NC1CCS(=O)(=O)C1 (configuration not stated) |  | inactive: 3.38%
46 | CC(/C=C/c1ccccc1)=N/NC(=O)c1cc([N+](=O)[O-])cc([N+](=O)[O-])c1 | inconclusive: 3.55 µM [inhibitor, single point] | 
47 | CCSC(=N)N | inconclusive: 23.1 µM [activator, single point] | 
48 | N#CC1=C(N)Oc2c(c(=O)oc3ccccc23)C1c1ccc([N+](=O)[O-])o1 (configuration not stated) | inconclusive: 12.6 µM [inhibitor, partial curve, poor fit] | 
49 | CC1(c2ccncc2)Nc2ccccc2-c2nc3ccccc3n21 (configuration not stated) | inconclusive: 6.51 µM [activator, single point] | 
50 | CC(=O)c1ccc2c(c1)CC1(C2)Cc2cc3c(cc2C1)C(=O)CC3 (configuration not stated) | inconclusive: 35.5 µM [inhibitor, single point] | 
51 | Cc1nn(CC(=O)Nc2c(C)n(C)n(-c3ccccc3)c2=O)c(C)c1[N+](=O)[O-] |  | inactive: 4.53%
52 | COC(=O)N1C(C)=Cc2ccccc2C1CC(C)=CC(C)=O (configuration not stated) | inconclusive: 0.006 µM [inhibitor, full curve, poor fit] | 
53 | CC12C=CC3(O1)C(C(=O)N(c1cccnc1)C3C(=O)NC1CCCCC1)C2C(=O)Nc1ccccc1 (configuration not stated) | inconclusive: 13 µM [activator, partial curve, poor fit] | 
54 | Cc1cccc(N=N/C(=C\O)C(=O)c2ccc(Br)cc2)c1 | active: 7.94 µM | 
55 | CC(C)CNS(=O)(=O)c1ccc(CCC(=O)NCc2ccc(Cl)cc2)cc1 | inconclusive: 2.82 µM [inhibitor, full curve] | 
56 | Cn1nc(NC(=O)C(C)(C)C)c2c(F)cccc21 | inconclusive: 7.94 µM [activator, partial curve, poor fit] | 
57 | O=C(CCC(=O)N(CC(=O)NC1CCCC1)Cc1ccccc1)Nc1nccs1 | inconclusive: 5.62 µM [activator, single point] | 
58 | COc1ccccc1NS(=O)(=O)c1cccc(NS(=O)(=O)c2ccc(Cl)c(C(=O)O)c2)c1 | inconclusive: 31.6 µM [activator, partial curve, poor fit] | 
59 | COc1ccc(C(CNc2ccc(S(=O)(=O)N3CCCC3)cc2[N+](=O)[O-])N2CCCC2)cc1 (configuration not stated) | inconclusive: 11.2 µM [inhibitor, single point] | 
60 | O=C(CSc1nnc(-c2ccncc2)o1)NCc1ccccc1Cl |  | inactive: -27.8%
61 | O=C1Nc2cccc(Br)c2[C@@]12O[C@H](COc1ccccc1)CC1=CCC[C@H]12 | inconclusive: 0.376 µM [activator, partial curve, poor fit] | 
62 | O=C(/C=C/c1cccc(Cl)c1)NCCN1CCOCC1 | inconclusive: 3.55 µM [activator, full curve, poor fit] | 

Complete entries from above.
`COc1ccc(OC)c(NC(=O)c2ccc(CN(c3cc(Cl)ccc3C)S(=O)(=O)c3ccccc3)cc2)c1` in the list: Potency: inconclusive: 11.2 µM [inhibitor, single point]
`COC(=O)c1sccc1NC(=O)Cn1nnc(-c2ccccc2C)n1` in the list: Potency: inconclusive: 6.31 µM [inhibitor, partial curve, poor fit]
